For one sequence, binding signal results are on record in publication PMC5996148.

The other results are listed elsewhere or left out. For some assays here: The source does not settle which construct or isoform was used.

Some test systems named below: IGL@ (human); IGLV2-14 (human); IGSF1 (human); IL17A (human); IL18BP (human); IL1B (human); IL1F8 (human); IL1RN (human); IL22 (human); IL27 (human); IL32 (human); IL5 (human); IL7 (human); ILVBL (human); INDO (human); ING3 (human); INPP1 (human); INVS (human); IRF3 (human).
What all share (assay): protein microarray (ProtoArray v5.0), streptavidin-Alexa Fluor 647
Common to all, as to details: 3'-biotin; 20 mM Tris (pH 7.5), 5 mM MgCl2, 100 mM KCl, 0.1% Tween-20, A/T-rich and random oligonucleotide blockers; temperature not stated; high values mean tight binding

A further experiment concerns the target T1, IPPK (UniProt Q9H8X2).
T1 sequence: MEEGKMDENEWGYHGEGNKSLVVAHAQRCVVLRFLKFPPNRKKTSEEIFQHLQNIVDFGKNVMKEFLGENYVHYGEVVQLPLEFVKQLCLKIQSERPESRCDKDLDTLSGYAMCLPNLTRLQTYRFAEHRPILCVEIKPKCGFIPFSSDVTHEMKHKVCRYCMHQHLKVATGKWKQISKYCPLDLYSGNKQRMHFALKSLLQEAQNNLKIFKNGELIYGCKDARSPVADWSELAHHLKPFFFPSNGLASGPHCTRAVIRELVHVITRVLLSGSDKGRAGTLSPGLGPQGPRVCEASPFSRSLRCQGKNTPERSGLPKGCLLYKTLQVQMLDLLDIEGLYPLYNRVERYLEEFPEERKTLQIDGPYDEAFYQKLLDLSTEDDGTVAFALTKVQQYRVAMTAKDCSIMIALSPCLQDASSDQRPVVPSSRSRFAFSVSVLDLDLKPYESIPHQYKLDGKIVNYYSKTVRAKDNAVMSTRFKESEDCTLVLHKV

Consider “GGGGACAGGGGTATGGGGAGGGG [G4-3 biotinylated (CtG)]”, for which the binding signal with IGL@ (human) is -0.34 z-score; in the experiment on IGLV2-14 (human), -0.329 z-score; in the experiment on IGSF1 (human), -0.317 z-score; in the experiment with IL17A (human), -0.33 z-score; with IL18BP (human) it was -0.333 z-score; in the experiment on IL1B (human) it was -0.342 z-score. Besides, the binding signal in the experiment on IL1F8 (human) is -0.336 z-score; in the experiment on IL1RN (human), -0.328 z-score; in the experiment with IL22 (human), -0.32 z-score; with IL27 (human), -0.314 z-score; with IL32 (human), -0.308 z-score; in the experiment on IL5 (human) it was -0.334 z-score. The binding signal with IL7 (human) was -0.327 z-score; in the experiment on ILVBL (human), -0.321 z-score; in the experiment on INDO (human), -0.335 z-score; in the experiment on ING3 (human), -0.316 z-score; in the experiment with INPP1 (human), -0.328 z-score; in the experiment with INVS (human), -0.316 z-score. In addition, the binding signal was 3.42 z-score in the experiment with IPPK and -0.301 z-score in the experiment on IRF3 (human).
